The nature of this data set: Dissociation index (side-effect biomarker ED / TNFα ED). Format: in vivo, mouse. The settings on record: for Corrected Dissociation Index Insulin/TNF (ED50 dose) / Corrected Dissociation Index Insulin/TNF (ED80 dose) / Corrected Dissociation Index OC/TNF (ED50 dose) / Corrected Dissociation Index OC/TNF (ED80 dose) / Corrected Dissociation Index BFR/TNF (ED50 dose) / Corrected Dissociation Index BFR/TNF (ED80 dose): compound DI divided by prednisolone DI; for Dissociation Index Insulin/TNF (ED50 dose): insulin ED50 / TNFα ED50; for Dissociation Index Insulin/TNF (ED80 dose): insulin ED80 / TNFα ED80; for Dissociation Index OC/TNF (ED50 dose): osteocalcin ED50 / TNFα ED50; for Dissociation Index OC/TNF (ED80 dose): osteocalcin ED80 / TNFα ED80; for Dissociation Index BFR/TNF (ED50 dose): BFR ED50 / TNFα ED50; for Dissociation Index BFR/TNF (ED80 dose): BFR ED80 / TNFα ED80. The method, then:
A dissociation index (DI) was chosen as a measurement to quantify the dissociation of compounds relative to that of prednisolone in terms of biomarkers of anti-inflammatory efficacy and side-effects. Dissociation indices were calculated using clinically relevant biomarkers that could be utilized in early clinical development. Serum osteocalcin and LPS-induced serum TNFα are accepted clinically as predictive for bone formation and anti-inflammatory efficacy, respectively.
The dissociation index was based on the following tenets:
1) Dissociation required a dose-margin between biomarkers of inflammation and side-effects [such as osteocalcin (OC), insulin, or bone formation rate], and was defined by the formula, using osteocalcin suppression (OC) as the side effect example:
[formula] 2) The DI of a compound can be considered relative to that observed with prednisolone, its clinical comparator. The corrected or normalized DI was defined as compound DI divided by prednisolone DI.

No dose or concentration is given here for some results. Some results are limits rather than exact numbers.

Take `Cc1nc(Br)ccc1NC(=O)c1ccc2c(c1)CC[C@@H]1C[C@@](O)(c3ccccc3)[C@](C)(O)C[C@@]21Cc1ccccc1` [Comparator B, (4bR,6R,7R,8aR)-4b-benzyl-N-(6-bromo-2-methylpyridin-3-yl)-6,7-dihydroxy-6-methyl-7-phenyl-4b,5,6,7,8,8a,9,10-octahydrophenanthrene-2-carboxamide]: the “Corrected Dissociation Index Insulin/TNF (ED50 dose)” value is 1.4, the “Corrected Dissociation Index Insulin/TNF (ED80 dose)” value is on record as 3.5, the “Corrected Dissociation Index OC/TNF (ED50 dose)” value came to 2.8 and the “Corrected Dissociation Index OC/TNF (ED80 dose)” value was determined as 1.1. Also, the “Dissociation Index Insulin/TNF (ED50 dose)” value was 12.5, the “Dissociation Index Insulin/TNF (ED80 dose)” value was found to be 16.8, the “Dissociation Index OC/TNF (ED50 dose)” value was determined as 2.5 and the “Dissociation Index OC/TNF (ED80 dose)” value stood at 2.2.
With `Cc1ncccc1NC(=O)c1ccc2c(c1)CC[C@@H]1C[C@@](O)(c3ccccn3)[C@](C)(O)C[C@@]21Cc1ccccc1` [Comparator C, (4bR,6R,7R,8aR)-4b-benzyl-6,7-dihydroxy-6-methyl-N-(2-methylpyridin-3-yl)-7-(pyridin-2-yl)-4b,5,6,7,8,8a,9,10-octahydrophenanthrene-2-carboxamide], the “Dissociation Index BFR/TNF (ED50 dose)” value was 1.2, the “Dissociation Index BFR/TNF (ED80 dose)” value is given as 0.8, the “Corrected Dissociation Index BFR/TNF (ED50 dose)” value worked out at 1.5 and the “Corrected Dissociation Index BFR/TNF (ED80 dose)” value worked out at 0.6. Moreover, the “Corrected Dissociation Index Insulin/TNF (ED50 dose)” value is on record as above 0.7, the “Corrected Dissociation Index Insulin/TNF (ED80 dose)” value is reported as above 0.4, the “Corrected Dissociation Index OC/TNF (ED50 dose)” value worked out at 1.3 and the “Corrected Dissociation Index OC/TNF (ED80 dose)” value is given as above 2. The “Dissociation Index Insulin/TNF (ED50 dose)” value is above 6.5, the “Dissociation Index Insulin/TNF (ED80 dose)” value is above 2, the “Dissociation Index OC/TNF (ED50 dose)” value was 1.2 and the “Dissociation Index OC/TNF (ED80 dose)” value is above 2.
With `C[C@@]1(O)C[C@@]2(Cc3ccccc3)c3ccc(C(=O)NCc4cccnc4)cc3CC[C@@H]2C[C@@]1(O)c1ccccc1` [Comparator D, (4bR,6R,7R,8aR)-4b-benzyl-6,7-dihydroxy-6-methyl-7-phenyl-N-(pyridin-3-ylmethyl)-4b,5,6,7,8,8a,9,10-octahydrophenanthrene-2-carboxamide], the “Dissociation Index BFR/TNF (ED50 dose)” value is given as 3.1, the “Dissociation Index BFR/TNF (ED80 dose)” value is given as above 4.1, the “Corrected Dissociation Index BFR/TNF (ED50 dose)” value was 3.9 and the “Corrected Dissociation Index BFR/TNF (ED80 dose)” value is given as above 3.2. Moreover, the “Corrected Dissociation Index Insulin/TNF (ED50 dose)” value is listed as above 0.6, the “Corrected Dissociation Index Insulin/TNF (ED80 dose)” value is on record as above 0.9, the “Corrected Dissociation Index OC/TNF (ED50 dose)” value was above 5.9 and the “Corrected Dissociation Index OC/TNF (ED80 dose)” value is recorded as above 2.1. The “Dissociation Index Insulin/TNF (ED50 dose)” value is recorded as above 5.3, the “Dissociation Index Insulin/TNF (ED80 dose)” value is on record as above 4.1, the “Dissociation Index OC/TNF (ED50 dose)” value is above 5.3 and the “Dissociation Index OC/TNF (ED80 dose)” value is above 4.1.
Consider `Cc1ncccc1NC(=O)c1ccc2c(c1)CC[C@@H]1C[C@@](O)(C(F)(F)F)[C@](C)(O)C[C@@]21Cc1ccccc1` [Comparator E, (4bR,6R,7S,8aR)-4b-benzyl-6,7-dihydroxy-6-methyl-N-(2-methylpyridin-3-yl)-7-(trifluoromethyl)-4b,5,6,7,8,8a,9,10-octahydrophenanthrene-2-carboxamide], for which the “Dissociation Index BFR/TNF (ED50 dose)” value is given as below 0.3, the “Dissociation Index BFR/TNF (ED80 dose)” value is reported as below 0.3, the “Corrected Dissociation Index BFR/TNF (ED50 dose)” value was below 0.4 and the “Corrected Dissociation Index BFR/TNF (ED80 dose)” value is listed as below 0.2. The “Corrected Dissociation Index OC/TNF (ED50 dose)” value was below 0.9, the “Corrected Dissociation Index OC/TNF (ED80 dose)” value is given as below 0.5, the “Dissociation Index OC/TNF (ED50 dose)” value is listed as below 0.8 and the “Dissociation Index OC/TNF (ED80 dose)” value is below 1.
As to `Cc1ncccc1NC(=O)c1ccc2c(c1)C(=O)C[C@@H]1C[C@@](O)(c3ccccc3)[C@](C)(O)C[C@@]21Cc1ccccc1` [Example 1, (4bR,6R,7R,8aS)-4b-benzyl-6,7-dihydroxy-6-methyl-N-(2-methylpyridin-3-yl)-10-oxo-7-phenyl-4b,5,6,7,8,8a,9,10-octahydrophenanthrene-2-carboxamide], the “Dissociation Index BFR/TNF (ED50 dose)” value is given as 4.1, the “Dissociation Index BFR/TNF (ED80 dose)” value stood at 7.9, the “Corrected Dissociation Index BFR/TNF (ED50 dose)” value amounted to 5.1 and the “Corrected Dissociation Index BFR/TNF (ED80 dose)” value turned out to be 6.1. In addition, the “Corrected Dissociation Index Insulin/TNF (ED50 dose)” value came to 4.8, the “Corrected Dissociation Index Insulin/TNF (ED80 dose)” value is listed as 11.1, the “Corrected Dissociation Index OC/TNF (ED50 dose)” value is listed as 3.1 and the “Corrected Dissociation Index OC/TNF (ED80 dose)” value came to 1.6. Moreover, the “Dissociation Index Insulin/TNF (ED50 dose)” value was 44.1, the “Dissociation Index Insulin/TNF (ED80 dose)” value was found to be 5.5, the “Dissociation Index OC/TNF (ED50 dose)” value is 2.8 and the “Dissociation Index OC/TNF (ED80 dose)” value worked out at 3.2.

Source of the values: patent US8552035B2, “Phenanthrenone compounds, compositions and methods” (Pfizer Inc., priority 2008, dated 2013).
